{
  "source": "patent US11759437B2",
  "about": "“Preventive and therapeutic approach for aberrant cell differentiation and ISR-associated diseases” (The University of Hong Kong, priority 2016, dated 2023)",
  "origin": "cited, not measured here",
  "test_system": "Mouse models of chondrodysplasia",
  "settings": "cited from earlier work",
  "note": "At least one compound was matched to its structure with a doubt left.",
  "data": [
    {"smiles": "[Li]", "note": "[lithium]", "values": [
      {"measurement": "efficacy in chondrodysplasia", "result": "ineffective"}
    ]},
    {"smiles": "CCCC(CCC)C(=O)O", "note": "[valproate]", "values": [
      {"measurement": "efficacy in chondrodysplasia", "result": "ineffective"}
    ]}
  ]
}
